Experimental data reported in publication PMC5493754.
No constants are given. Whether binding was seen depends on the method and setting.

Protein sequences, listed by entry. Tags and fused reporters are not part of them. Lines headed by an entry give the natural chain unless they say otherwise; changes in a name come on top. Chains listed by the source or under a name are the forms on record and can include a tag or linker. Residues count along the entry.
UniProt Q8N8V4, residues 259-417: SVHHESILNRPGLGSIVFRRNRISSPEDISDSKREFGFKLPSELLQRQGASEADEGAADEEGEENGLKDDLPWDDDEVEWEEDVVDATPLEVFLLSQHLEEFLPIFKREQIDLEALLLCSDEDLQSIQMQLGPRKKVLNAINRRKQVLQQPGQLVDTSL
UniProt Q495M9, residues 300-461: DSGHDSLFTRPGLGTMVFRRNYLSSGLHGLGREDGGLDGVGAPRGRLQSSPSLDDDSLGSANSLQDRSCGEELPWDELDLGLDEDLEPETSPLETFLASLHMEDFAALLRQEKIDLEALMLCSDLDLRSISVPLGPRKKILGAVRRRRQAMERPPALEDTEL
Myosin 7b MF1.SH3 A1128E-R1129E-K1192E (Q6PIF6, form named): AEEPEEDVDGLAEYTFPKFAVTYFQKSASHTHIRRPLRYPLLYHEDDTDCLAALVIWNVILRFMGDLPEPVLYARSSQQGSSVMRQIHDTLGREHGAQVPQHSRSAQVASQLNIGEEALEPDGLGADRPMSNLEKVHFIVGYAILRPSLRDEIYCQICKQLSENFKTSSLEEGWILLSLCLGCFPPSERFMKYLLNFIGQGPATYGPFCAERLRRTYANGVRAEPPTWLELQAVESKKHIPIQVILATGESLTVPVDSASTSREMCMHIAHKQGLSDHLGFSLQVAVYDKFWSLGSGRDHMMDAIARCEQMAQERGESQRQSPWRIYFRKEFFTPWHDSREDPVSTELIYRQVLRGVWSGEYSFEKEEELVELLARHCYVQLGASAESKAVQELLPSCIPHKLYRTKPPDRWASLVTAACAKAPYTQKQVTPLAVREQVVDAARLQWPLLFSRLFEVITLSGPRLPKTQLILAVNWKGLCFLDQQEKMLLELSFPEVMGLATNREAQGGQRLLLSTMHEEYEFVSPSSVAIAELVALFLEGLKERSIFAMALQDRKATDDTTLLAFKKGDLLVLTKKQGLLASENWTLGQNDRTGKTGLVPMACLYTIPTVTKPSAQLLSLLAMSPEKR

How the values were obtained:
[1] = target: YFP-ANKS4B_(CEN-PBM) (human) (UniProt Q8N8V4); assay: MST; YFP-fused partner constant at 100 nM, non-fluorescent protein titrated (16 two-fold dilutions); 20 mM Hepes pH 7.0, 100 mM NaCl, 1 mM EGTA, 0.5 mM TCEP, 0.05% Tween 20; Monolith NT.115; both purified
YFP-SANS_(CEN-PBM) = YFP-SANS_(CEN-PBM) (UniProt Q495M9); assay: as above

Substance: Myosin 7b MF1.SH3 A1128E-R1129E-K1192E (from UniProt Q6PIF6 958-1586) (domain or fragment)
- binding [1]: no binding
- binding (YFP-SANS_(CEN-PBM)): no binding
